Test results: patent US7709645B2, “Pyrrolo-pyridine kinase modulators” (SGX Pharmaceuticals, Inc., priority 2004, dated 2010)
Positions count from the first letter of the chain named. Some of these results come from one statement about several compounds together. At least one compound was matched to its structure with a doubt left.

What was measured:
[1] = molecular target: T1, T315I mutant form of BCR-ABL in Ba/F3 cells (Homo sapiens, UniProt P00519, T315I); assay: Abl_T315I p-ELISA Cellular Assay (BCR-ABL phospho-ELISA); assay type: cell-based; details: 60-120 minutes incubation
T1 construct: expressed in transfected cells; host or cells: Ba/F3 cells; the other entry of the earlier key: BCR (P11274, Breakpoint cluster region protein)
T1 sequence (P00519 242-493 T315I limits assumed): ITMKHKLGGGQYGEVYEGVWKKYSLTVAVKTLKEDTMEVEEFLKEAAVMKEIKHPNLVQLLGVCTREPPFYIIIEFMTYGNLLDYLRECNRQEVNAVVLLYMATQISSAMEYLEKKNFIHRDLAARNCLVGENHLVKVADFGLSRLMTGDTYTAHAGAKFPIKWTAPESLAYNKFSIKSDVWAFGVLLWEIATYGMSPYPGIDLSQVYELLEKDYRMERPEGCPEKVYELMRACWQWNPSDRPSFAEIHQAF
Protocol: Cells (Ba/F3 cells transfected with WT BCR-ABL, other kinases, or T315I, Y253F, M351T, E255K, or other mutant forms of BCR-ABL) were grown in the absence of IL-3 at least ½ week before the assay. The day before assay, the cells were fed with fresh media so that at the time of assay the cells were in log phase. Ba/F3 cells that had been grown in the absence of IL-3 for at least ½ week were resuspended in RPMI 1640 so that each well of a 96-well plate would contain approximately 200,000 cells. Cells were distributed in a 96-well plate containing serially diluted concentrations of test compounds. Cells were typically incubated with or without test compounds for 60-120 minutes at 5% CO2, 37° C. The incubation was performed with or without other additives such as 10% FCS or 50% human plasma. After incubation of compounds, lysis buffer was added and incubated for 10-15 minutes; the lysate was cleared by centrifugation.
To make the ELISA plate, commercially available Anti-ABL antibodies (e.g. (Ab-3, Calbiochem OP20) were prepared at a concentration of 0.125 μg/ml in coating buffer (0.1M Na-carbonate, pH 9.5), and plated at 10 ml per plate (12.5 μl 100 μg/ml Ab/10 ml). In a high binding multi-well plate, 100 μl Ab in coating buffer were added to each well, and each plate was covered with a plate seal and incubated overnight at 4° C.
Excess antibody was removed and the ELISA plate was washed 3-4 times with 200 μl of wash buffer (0.05% Tween in PBS, pH 7.4). 150 μl of lysate (see above) were transferred to the ELISA plate. Plates were sealed and incubated 2 hours at room temperature. The detection antibody (e.g. HRP conjugated anti-pTyr or unconjugated α-p-Y 4G10, Upstate) was prepared in assay diluent. […]
Substrate Reagent A and Substrate Reagent B (Pierce Cat#37070 SuperSignal ELISA Pico Chemiluminescent Substrate) were added immediately before use (10 ml resultant solution per plate). 100 μl substrate were added per well, mixed for 1 minute, and chemiluminescent signal was measured with a luminometer.

[2] = molecular target: T2, Abl T315I kinase domain (unphosphorylated) (Mus musculus, UniProt P00520, T315I); assay: Abl_T315I Bioassay (c-Abl PK/LDH coupled enzyme assay); assay type: biochemical; details: 10 μM ATP
T2 construct: purified and unphosphorylated T315I Abl kinase domain; made in house; host or cells: E. coli BL21(DE3) strains
T2 sequence (P00520 242-493 T315I limits assumed): T1 sequence (P00519 242-493 T315I limits assumed) with N95S
Text: Although the first of these examples uses the kinase domain of a mutant form of Abl T315I (“Abl T315I KD”), the kinase assays may use various forms of mutant and wild type enzymes, including, for example, the entire protein, the kinase domain, or a portion thereof (e.g. Abl Y393F). The kinases used in the assays may also be of varying phosphorylation states. In the c-Abl example, a mutant kinase at a zero phosphorylation state was used.
In the c-Abl Pyruvate Kinase (PK)/Lactate Dehydrogenase (LDH) Coupled Assay the protein kinase dependant phosphorylation of a substrate peptide was coupled to the oxidation of NADH. The oxidation of NADH to NAD+ was detected by monitoring a decrease in absorbance at 340 nm.
Materials: Abl substrate peptide=EAIYAAPFAKKK (SEQ ID NO:1)-OH (Biopeptide, San Diego, Calif.); βNADH (Sigma Cat#N-8129, FW=709.4); 2M MgCl2; 1M HEPES buffer, pH 7.5; Phosphoenolpyruvate (PEP) (Sigma Cat#P-7002, FW=234); Lactate dehydrogenase (LDH) (Worthington Biochemical Cat#2756); Pyruvate Kinase (PK) (Sigma Cat#P-9136); ATP (Sigma Cat#A-3377, FW=551); Greiner 384-well UV star plate; and purified and unphosphorylated T315I Abl kinase domain.
Stock Solutions: 10 mM NADH (7.09 mg/ml in miliQH2O) made fresh daily; 10 mM Abl substrate peptide (13.4 mg/ml in miliQH2O) stored at −20° C.; 100 mM HEPES buffer, pH 7.5 (5 ml 1M stock+45 ml miliQH2O); 100 mM MgCl2 (5 ml 2M MgCl2+95 ml dH2O); 100 mM PEP (23.4 mg/ml in dH2O) stored at −20° C.; 10 mM ATP (5.51 mg/ml in dH2O) stored at −20° C. (diluted 50 μl into total of 10 ml miliQH2O daily=50 μM ATP working stock); 1000 U/ml PK (U/mg varies with lot) flash-frozen under liquid N2 and stored at −80° C.; and 1000 U/ml LDH (U/mg varies with lot) flash-frozen under liquid N2 and stored at −80° C.
Standard Assay Setup for 384-well format (50 μl reaction): 300 μM NADH; 10 mM MgCl2; 2 mM PEP; 45 U/ml PK; 60 U/ml LDH; 200 μM Abl substrate peptide; 2.5 μl test compound (in DMSO); 2 μg/ml Abl kinase domain; 10 μM ATP; 100 mM HEPES buffer. Positive controls contained DMSO with no test compound. Negative controls contained 5 μl of 0.5M EDTA (50 mM in the assay). The dephosphorylated form of the c-Abl T315I mutant was used in the biochemical screening assays. The kinase reaction was initiated at time t=0 by the addition of ATP.
Activity was measured by following the time-dependent loss of NADH by absorbance spectroscopy at 340 nm. The linear portion of the resulting progress curve was then analyzed by linear regression to get the activity in absorbance units/time, reported as the slope of that best fit line (moles/unit time can be calculated from using molar extinction coefficient for NADH at 340 nm, 6250M^−1 cm^−1).
Data was evaluated using the equation: Z′=1−[3*(σ++σ−)/|μ+−μ−|](Zhang, et al., 1999 J Biomol Screening 4(2) 67-73), where μ denotes the mean and σ the standard deviation. The subscript designates positive or negative controls. The Z′ score for a robust screening assay should be ≧0.50. The typical threshold=μ+−3*σ+. Any value that falls below the threshold was designated a “hit”.
Dose response was analyzed using the equation: y=min+{(max−min)/(1+10^[compound]−logIC50)}, where y is the observed initial slope, max=the slope in the absence of inhibitor, min=the slope at infinite inhibitor, and the IC50 is the [compound] that corresponds to ½ the total observed amplitude (Amplitude=max−min).
To measure modulation, activation, or inhibition of Abl KD, a test compound was added to the assay at a range of concentrations. Inhibitors may inhibit Abl KD activity at an IC50 in the micromolar range, the nanomolar range, or, for example, in the subnanomolar range.
An open-reading frame for c-Abl was amplified from a Mus musculus (mouse) cDNA library prepared from freshly harvested mouse liver using a commercially available kit (Invitrogen) by PCR using the following primers: […]
The c-Abl T315I KD (kinase domain) was purified as follows. […]

| Structure (SMILES) | IC50 [1] [nM] | IC50 [2] [nM] |
| --- | --- | --- |
| COc1ccccc1-c1c[nH]c2ncc(-c3ccc(O)c(C(=O)N4CCN(C)CC4)c3)cc12 [AE26] | < 100 | – |
| COc1ccc(C)cc1-c1c[nH]c2ncc(-c3cccc(C(=O)N4CCOCC4)c3)cc12 [AE31] | < 100 | < 50 |
| COc1ccccc1-c1c[nH]c2ncc(-c3cc(F)c(O)c(F)c3)cc12 [AE44] | < 100 | < 50 |
